Here are results for 36 molecules from paper PMC12670160, “A drug-repurposing screen of FDA- and EMA-approved drugs identifies two NF-κB inhibitors active against eumycetoma” (Journal of Antimicrobial Chemotherapy, 2025).

Structures can show the parent of a compound that is named as a salt. Among all 5,300 compounds or so, about 130 (2.5%) showed an effect of 50% or more. This is one part of the list.

The assay deals with M. mycetomatis strain mm55. Conditions: primary screen, metabolic activity vs growth control; 96 h, 2 µM; inhibitor.
Turning to `CC(=O)c1c(O)c(C)c(O)c2c1OC1=CC(=O)C(C(C)=O)C(=O)[C@@]12C` (stereo partly drawn) [ONC0004971, usniacin dusnic acid], the “% viability” value amounted to 81.71%. For the molecule `Cc1cccc(-c2n[nH]cc2-c2ccc(F)c(-c3cnn(CCO)c3)c2)n1` [ONC0003583, r268712], the “% viability” value came to 110.6%. As for `COc1ccc(CN2CCNCC2)c(OC)c1OC` [ONC0005391, trimetazidine dihydrochloride], the figure is 101.6%; as for `O=C(CCCCCN1C(=O)c2cccc3cccc(c23)C1=O)NO` [ONC0003573, scriptaid], 108.4%; as for `C=C[C@@]1(C)CC(=O)[C@]2(O)[C@@]3(C)[C@@H](O)CCC(C)(C)[C@@H]3[C@H](O)[C@H](OC(C)=O)[C@@]2(C)O1` [ONC0000047, forskolin], 87.43%. Take `CCN(CC)C(=S)SSC(=S)N(CC)CC` [ONC0000627, disulfiram]: the “% viability” value came out at 104.4%. Under `Cc1cc(OCCCS(C)(=O)=O)cc(C)c1-c1cccc(COc2ccc3c(c2)OC[C@H]3CC(=O)O)c1` [ONC0004585, tak875] stands 77.97%. Under `COc1cc(CCc2cc(NC(=O)c3ccc(N4C[C@@H](C)N[C@@H](C)C4)cc3)n[nH]2)cc(OC)c1` [ONC0005224, azd4547] stands 125.2%; under `O=C(N[C@H]1CN2CCC1CC2)c1c[nH]c2ccsc2c1=O` [ONC0005516, pumosetrag], 106.8%.

`CCC(=N\O)/C(C)=C/c1ccc(F)cc1` [ONC0004368, a967079]: the “% viability” value was determined as 160.4%. Under `CC1(C)S[C@@H]2[C@H](NC(=O)C(C(=O)O)c3ccccc3)C(=O)N2[C@H]1C(=O)O` (stereo partly drawn) [ONC0000762, carbenicillin disodium] stands 63.52%; under `COc1ccc(-c2nc(-c3ccc(-c4cccc(Cl)c4)o3)[nH]c2-c2ccc(OC)cc2)cc1` [ONC0000825, neurodazine], 67.04%. Under `COC(=O)N[C@H](C(=O)N1CCC[C@H]1c1nc(-c2ccc(-c3ccc(-c4c[nH]c([C@@H]5CCCN5C(=O)[C@@H](NC(=O)OC)C(C)C)n4)cc3)cc2)c[nH]1)C(C)C` [ONC0004614, daclatasvir bms790052] stands 88.33%. Under `NC(=O)N1C(=O)/C(=C(\O)c2cccs2)c2cc(Cl)ccc21` [ONC0001359, tenidap] stands 90.53%. `CCN(CC)CCOC(=O)C(Cc1cccc2ccccc12)CC1CCCO1` (stereo not drawn) [ONC0002388, nafronyl oxalate]: the “% viability” value is recorded as 125.3%. On to `C[C@H](N)[C@H](O)c1cccc(O)c1` [ONC0003110, metaraminol bitartrate], for which the “% viability” value was 76.38%. For `COC(=O)c1ccccc1NC(=O)c1ccc(F)cc1` [ONC0000191, exo1], the “% viability” value worked out at 65.33%. As to `CC(C)N(CCCNC(=O)Nc1ccc(C(C)(C)C)cc1)C[C@H]1O[C@@H](n2cc(Br)c3c(N)ncnc32)[C@H](O)[C@@H]1O` [ONC0004320, sgc 0946], the “% viability” value was determined as 83.24%.

Consider `COc1ccc(-c2csc(NC(=O)[C@H]3CCCCN3S(=O)(=O)c3ccc(C)cc3)n2)cc1` [ONC0002773, ml277], for which the “% viability” value worked out at 70.28%. Under `CC1=C(CC(=O)O)c2cc(F)ccc2/C1=C\c1ccc(S(C)(=O)=O)cc1` [ONC0003310, exisulind] stands 74.23%.

With `CCCCc1nc2ccn(CC(=O)N(C)C)c(=O)c2n1Cc1ccc(-c2ccccc2-c2nnn[nH]2)cc1` [ONC0001732, emd66684], the “% viability” value worked out at 80.28%. As for `CS(=O)(=O)c1ccc(-c2cc(Br)sc2-c2ccc(F)cc2)cc1` [ONC0001581, dup697], the figure is 84.54%. Under `O=C1CN(/N=C/c2ccc([N+](=O)[O-])o2)C(=O)N1` [ONC0000476, nitrofurantoin] stands 64.94%; under `c1ccc2c(c1)CN1CCCC1=N2` [ONC0003505, desoxypeganine], 51.7%; under `Cc1ccccc1OCC(O)CO` (stereo not drawn) [ONC0000654, mephenesin], 110.3%. Take `C[C@H]1[C@H](C)CC[C@]2(C(=O)O)CC[C@]3(C)C(=CC[C@@H]4[C@@]5(C)C[C@@H](O)[C@H](O)C(C)(C)[C@@H]5CC[C@]43C)[C@H]12` [ONC0001060, corosolic acid]: the “% viability” value is 51.55%.

In the case of `CC(C)(C)C(=O)C(Oc1ccc(Cl)cc1)n1ccnc1` (stereo not drawn) [ONC0004273, climbazole], the “% viability” value came to 94.51%. Under `Cc1cc(C(=CNc2ccc(Cl)cc2)C(=O)Nc2ccc(Cl)cc2)on1` [ONC0000028, ccmi] stands 80.11%.

For the molecule `Cc1nc2sccn2c(=O)c1CCN1CCC(=C(c2ccccc2)c2ccc(F)cc2)CC1` [ONC0000077, r59022], the “% viability” value is 101.8%. As to `CN[C@@H]1[C@@H](O)[C@@H](O[C@@H]2[C@@H](O)[C@H](O[C@H]3OC(CN)=CC[C@H]3N)[C@@H](N)C[C@H]2N)OC[C@]1(C)O` [ONC0000954, sisomicin sulfate], the “% viability” value stood at 75.58%. `COc1cc(OC)cc(C(=O)NNC(=O)Nc2cccc3ccccc23)c1` [ONC0001582, tco9311]: the “% viability” value amounted to 89.25%. Under `O=C(N[C@H]1CN2CCC1CC2)c1ccc(Cl)cc1` [ONC0001339, pnu282987] stands 105.8%. As for `CN[C@H]1C(=O)N[C@@H]2Cc3ccc(cc3)Oc3cc4cc(c3O[C@@H]3O[C@H](C(=O)O)[C@@H](O)[C@H](O)[C@H]3NC(=O)CCCCCCCCC(C)C)Oc3ccc(cc3Cl)[C@@H](O)[C@@H]3NC(=O)[C@H](NC(=O)[C@@H]4NC(=O)[C@@H](NC2=O)c2cc(cc(O)c2Cl)Oc2cc1ccc2O)c1ccc(O)c(c1)-c1c(O[C@H]2O[C@H](CO)[C@@H](O)[C@H](O)[C@@H]2O)cc(O)cc1[C@@H](C(=O)NCCCN(C)C)NC3=O` [ONC0002203, dalbavancin], the figure is 90.32%; as for `N#Cc1c(N)nc(SCc2ncc[nH]2)c(C#N)c1-c1ccc(O)cc1` [ONC0002651, luf5834], 74.61%. Turning to `O=C(O)c1ccccc1Nc1cc(Cl)ccc1C(=O)O` [ONC0003876, lobenzarit disodium], the “% viability” value is 86.47%.

For `CC1(O)CCC(C(C)(C)O)CC1` (stereo not drawn) [ONC0005315, terpene hydrate], the “% viability” value came out at 59.84%.
